According to patent US4442031A (Hoffmann-La Roche Inc., priority 1983, dated 1984):

Experiment: general procedure: solution-phase peptide synthesis; DCC/HOSu; DCC/HOBt

Substance	step yield (coupling step)	also measured
L-Lysyl-L-seryl-L-glutamyl-L-valyl-L-valyl-L-glutamic acid	–	step yield (late stage modification step, over three deprotection reactions): 51.4% for the three reactions
N^α -Benzyloxycarbonyl-N^ε -t-butyloxycarbonyl-L-lysyl-N^ε -t-butyloxycarbonyl-L-lysyl-γ-t-butyl-L-glutamyl-L-valyl-L-valyl-γ-t-butyl-L-glutamic acid methyl ester	98%	–
γ-t-Butyl-L-glutamyl-L-valyl-L-valyl-γ-t-butyl-L-glutamic acid methyl ester	–	step yield (late stage modification step): 94%
N^α -Benzyloxycarbonyl-N^ε -t-butyloxycarbonyl-L-lysyl-O-t-butyl-L-seryl-γ-t-butyl-L-glutamyl-L-valyl-L-valyl-γ-t-butyl-L-glutamic acid methyl ester	65.3%	–
